Some of the results follow. This data set is noisy: repeats of one test often differ as much as different tests do.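 Human kidney-derived cells stably carry a construct in which eight TEAD-binding elements drive luciferase, measured by luminescence in a drug-repurposing library screen. A hit is any compound whose signal exceeds the plate mean by more than five robust Z scores.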

This test relates to HEK293A TEAD-LUC reporter. The experiment in a line: TEAD-luciferase reporter activity (YAP activation), robust Z score vs plate; higher = stronger YAP/TEAD activation. The conditions noted are these: 24 h. For orientation: In a reporter assay the amount or activity of a reporter protein is the signal.

Turning to `Cc1nc(Cn2cnc3c2c(=O)n(C)c(=O)n3C)no1` [Chinoin-170], the TEAD-luciferase reporter activity reads like this: (compound concentration: 200 nM) inactive: -3.21; (compound concentration: 2 uM) inactive: -1.49; (compound concentration: 10 uM) inactive: 2.23.

Turning to `CCC(C)OCC(CN(Cc1ccccc1)c1ccc2c(c1)OCO2)N1CCCC1` (configuration not stated), the TEAD-luciferase reporter activity is inactive: -1.59 (compound concentration: 200 nM), inactive: -0.959 (compound concentration: 2 uM) and inactive: 4.26 (compound concentration: 10 uM).

Consider `CC(C)Cn1cnc2c(N)nc3ccccc3c21` [imiquimod], for which the TEAD-luciferase reporter activity by setting is: (compound concentration: 200 nM) inactive: -1.83; (compound concentration: 2 uM) inactive: -2.29; (compound concentration: 10 uM) inactive: -1.29.

As to `CC12CCC3C(=CCc4cc(O)ccc43)C1CCC2=O` (configuration not stated), the TEAD-luciferase reporter activity runs as follows: (compound concentration: 200 nM) inactive: -0.22; (compound concentration: 2 uM) inactive: 1.42; (compound concentration: 10 uM) inactive: 0.332.

As to `Cc1cnc2c(c1)CCCC2C(N)=O` (configuration not stated), the TEAD-luciferase reporter activity was inactive: -1.01 (compound concentration: 200 nM), inactive: -0.0959 (compound concentration: 2 uM) and inactive: 0.0936 (compound concentration: 10 uM).

For the compound `CCCC[C@H](NC(C)=O)C(=O)N[C@H]1CC(=O)NCCCC[C@@H](C(=O)O)NC(=O)[C@H](Cc2c[nH]c3ccccc23)NC(=O)[C@H](CCCNC(=N)N)NC(=O)[C@@H](Cc2ccccc2)NC(=O)[C@H](Cc2c[nH]cn2)NC1=O` [Bremelanotide], the TEAD-luciferase reporter activity was inactive: -1.08 (compound concentration: 200 nM), inactive: 1.7 (compound concentration: 2 uM) and inactive: -1.28 (compound concentration: 10 uM).

As to `COc1ccc(CCN2CCC(c3nc(COCC(F)(F)F)c(-c4ccc(F)cc4)o3)CC2)cc1S(N)(=O)=O`, the TEAD-luciferase reporter activity was inactive: -0.364 (compound concentration: 200 nM), inactive: -0.815 (compound concentration: 2 uM) and inactive: 1.84 (compound concentration: 10 uM).

For the compound `CCc1nn(CCO)c(CC)c1Oc1cc(C#N)cc(C#N)c1` [lersivirine], under “compound concentration: 2 uM”, the TEAD-luciferase reporter activity is inactive: 0.135.

For the compound `CCc1nn(CCO)c(CC)c1Oc1cc(C#N)cc(C#N)c1`, the TEAD-luciferase reporter activity runs as follows: (compound concentration: 200 nM) inactive: -0.192; (compound concentration: 10 uM) inactive: -1.4.

For `O=C1c2ccccc2C(Cc2ccnc(F)c2)(Cc2ccnc(F)c2)c2ccccc21`, the TEAD-luciferase reporter activity (compound concentration: 200 nM) is inactive: -0.756, the TEAD-luciferase reporter activity (compound concentration: 2 uM) is inactive: -0.872 and the TEAD-luciferase reporter activity (compound concentration: 10 uM) is inactive: 2.49.

In the case of `COc1ccc(/C=N/NC(=N)N)c(Cl)c1OC`, the TEAD-luciferase reporter activity is inactive: -1.32 (compound concentration: 200 nM), inactive: -0.57 (compound concentration: 2 uM) and inactive: 0.997 (compound concentration: 10 uM).

Take `COc1ccc(Cc2nc(=O)c3c(C)nc([C@@H](CCCc4ccccc4)[C@@H](C)O)n3[nH]2)cc1OC`: the TEAD-luciferase reporter activity is inactive: -1.8 (compound concentration: 200 nM), inactive: 0.944 (compound concentration: 2 uM) and inactive: 4.13 (compound concentration: 10 uM).

For `Nc1ncnc2c1ncn2[C@H]1CC[C@@H](CO)O1` [Dideoxyadenosine], the TEAD-luciferase reporter activity is, setting by setting: (compound concentration: 200 nM) inactive: -1.19; (compound concentration: 2 uM) inactive: -0.853; (compound concentration: 10 uM) inactive: 0.306.

For the compound `CC(C)c1ccc(C(=O)c2cccs2)c(SCCCCCCCCN(C)C)n1`, the TEAD-luciferase reporter activity reads like this: (compound concentration: 200 nM) inactive: -0.0223; (compound concentration: 2 uM) inactive: 0.16; (compound concentration: 10 uM) inactive: 0.65.

As for `Cc1cc(OCCCNCCC(N)=O)ccc1Cc1c(O[C@@H]2O[C@H](CO)[C@@H](O)[C@H](O)[C@H]2O)n[nH]c1C(C)C`, the TEAD-luciferase reporter activity was inactive: -0.539 (compound concentration: 200 nM), inactive: 2.16 (compound concentration: 2 uM) and inactive: 0.103 (compound concentration: 10 uM).

Values taken from the supplement of paper PMC10735217.
